PubChem BioAssay AID1259254 | NCATS, 2017
Assay: 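Gene knock-downs that lead to re-replication, shown by excess G2 DNA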 (primary screen). Cells: human HCT116 colorectal cancer cells. Reagent: single siRNA against human genes. Time to read-out: 3 days. Measurement: 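Imaged Hoechst DNA stain sorts each cell into a cycle phase by DNA amount; per plate, G2 fraction set to 0% for non-targeting and 100% for GMNN siRNA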. Direction: G2 robust z-score: higher = more G2 cells, more excess DNA replication. Rule for the call: 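An siRNA counts as active if its G2 robust z-score lies at least 5 MADs above the screen median; here such calls match roughly 38% of GMNN control or more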.
This is a random part of about 59,000 reagents. About 1,550 of them (2.6%) were called active. 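G2 share is only a proxy for re-replication; each gene was hit by three separate siRNAs, and active genes were retested.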 Unmarked entries are inactive. The numbers tell different reagents against one gene apart. Further read-outs or replicates are left out here. Not given: the amount of reagent.

ESCO2 #1 showed G2 robust z-score -0.592. Depletion of ESCO2 #2 gave: G2 robust z-score -0.18. Against ESCO2 #3 the deposit lists G2 robust z-score -0.579. Against GABRB2 #1, the values are G2 robust z-score 3.4. For GABRB2 #2 the deposit lists G2 robust z-score -0.376. Against GABRB2 #3 the deposit lists G2 robust z-score 0.585.

With knock-down of CFLAR #1 the results were G2 robust z-score 8.09 (active). Depletion of CFLAR #2 came out at: G2 robust z-score 2.34. Knock-down of CFLAR #3 gave: G2 robust z-score 0.0487. Depletion of ENTREP1 #1 gave: G2 robust z-score 4.39. ENTREP1 #2 showed G2 robust z-score 0.43. Silencing of ENTREP1 #3 came out at: G2 robust z-score 1.73.

Against LOC440981 (retired record) #1, the values are G2 robust z-score 0.313. LOC440981 (retired record) #2 gave G2 robust z-score 1.6. With knock-down of LOC440981 (retired record) #3, the record shows G2 robust z-score 5.08 (active). Depletion of ZNF764 #1 resulted in: G2 robust z-score -0.564. For ZNF764 #2, the entry reads G2 robust z-score -0.286. With knock-down of ZNF764 #3 the results were G2 robust z-score 1.9.

PLPP7 #1 scored G2 robust z-score 0.76. PLPP7 #2 showed G2 robust z-score 0.118. Knock-down of PLPP7 #3 came out at: G2 robust z-score -0.484. Depletion of CLCA3P #1 gave: G2 robust z-score 5.49 (active). CLCA3P #2 scored G2 robust z-score 1.3. CLCA3P #3 gave G2 robust z-score -0.512.

Depletion of LINC00977 #1 resulted in: G2 robust z-score -0.896. Against LINC00977 #2, the entry reads G2 robust z-score 1.92. LINC00977 #3 showed G2 robust z-score 0.389. AUH #1 gave G2 robust z-score 2.83. For AUH #2, the values are G2 robust z-score 4.08. Against AUH #3 the deposit lists G2 robust z-score 0.492.
